Data on one substance can be found in PMC7753211.

Amino acid sequences for entries named in this document (tags omitted).
UniProt Q16665: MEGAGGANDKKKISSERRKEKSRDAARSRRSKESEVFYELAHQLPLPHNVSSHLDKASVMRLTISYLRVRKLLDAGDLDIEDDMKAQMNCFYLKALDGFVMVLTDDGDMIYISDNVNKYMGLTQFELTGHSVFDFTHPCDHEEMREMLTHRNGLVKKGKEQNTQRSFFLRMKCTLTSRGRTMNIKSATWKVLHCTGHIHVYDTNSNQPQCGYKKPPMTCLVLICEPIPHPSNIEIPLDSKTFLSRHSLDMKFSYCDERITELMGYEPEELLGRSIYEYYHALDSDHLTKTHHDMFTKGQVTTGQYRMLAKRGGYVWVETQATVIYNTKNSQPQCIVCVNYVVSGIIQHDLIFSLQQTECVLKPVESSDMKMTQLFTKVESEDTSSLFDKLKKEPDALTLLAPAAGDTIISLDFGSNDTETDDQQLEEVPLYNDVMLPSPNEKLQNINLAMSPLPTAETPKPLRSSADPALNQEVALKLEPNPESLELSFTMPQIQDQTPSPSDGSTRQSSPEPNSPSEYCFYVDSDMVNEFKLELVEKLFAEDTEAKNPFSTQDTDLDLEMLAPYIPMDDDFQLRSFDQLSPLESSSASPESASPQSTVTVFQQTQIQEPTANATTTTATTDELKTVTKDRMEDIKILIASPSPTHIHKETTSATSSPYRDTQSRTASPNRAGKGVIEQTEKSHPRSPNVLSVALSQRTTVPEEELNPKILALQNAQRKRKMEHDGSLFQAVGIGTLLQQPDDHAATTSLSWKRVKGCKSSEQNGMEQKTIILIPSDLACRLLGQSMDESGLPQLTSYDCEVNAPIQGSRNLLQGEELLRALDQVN
UniProt Q9NYF8: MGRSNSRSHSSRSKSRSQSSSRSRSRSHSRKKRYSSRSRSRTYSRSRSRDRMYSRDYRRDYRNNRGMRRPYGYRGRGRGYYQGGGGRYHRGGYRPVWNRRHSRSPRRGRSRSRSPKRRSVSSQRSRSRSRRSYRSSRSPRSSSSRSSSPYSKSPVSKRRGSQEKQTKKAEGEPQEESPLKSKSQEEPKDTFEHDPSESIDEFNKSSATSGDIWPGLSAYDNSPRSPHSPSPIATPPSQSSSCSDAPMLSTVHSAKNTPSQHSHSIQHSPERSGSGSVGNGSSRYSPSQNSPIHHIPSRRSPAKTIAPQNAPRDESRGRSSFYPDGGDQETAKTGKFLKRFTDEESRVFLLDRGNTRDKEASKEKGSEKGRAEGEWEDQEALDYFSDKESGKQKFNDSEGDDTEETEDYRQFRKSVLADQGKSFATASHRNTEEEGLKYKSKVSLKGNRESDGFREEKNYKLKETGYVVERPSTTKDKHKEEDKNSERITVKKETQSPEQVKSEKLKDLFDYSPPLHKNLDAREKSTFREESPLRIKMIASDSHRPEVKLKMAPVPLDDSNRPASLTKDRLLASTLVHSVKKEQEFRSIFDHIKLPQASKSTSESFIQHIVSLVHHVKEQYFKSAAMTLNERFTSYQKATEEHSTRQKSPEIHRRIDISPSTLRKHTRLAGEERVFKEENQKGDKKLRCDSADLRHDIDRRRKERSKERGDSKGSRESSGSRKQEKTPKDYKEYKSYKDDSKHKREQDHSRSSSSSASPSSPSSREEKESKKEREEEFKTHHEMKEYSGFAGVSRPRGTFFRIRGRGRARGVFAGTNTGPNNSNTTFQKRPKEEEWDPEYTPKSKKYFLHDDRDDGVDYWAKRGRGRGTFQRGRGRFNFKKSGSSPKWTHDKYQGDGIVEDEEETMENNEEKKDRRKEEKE

These are yes or no findings as the source states them, for the method shown. Binding seen in cells or lysates may run through a third protein. Some results given as binding are weak or reduced against the parent protein; the word gives no strength.

The target of this assay is hypoxia-inducible factor-1α (human (endogenous in Bel-7404 and Huh7)) (UniProt Q16665). The experiment in a line: co-IP; lysates of Bel-7404 and Huh7 cells kept under hypoxia (1% O2) and treated with CK (20, 40, 60 µM) for 48 h; lysis buffer 50 mM Tris-HCl pH 7.5, 150 mM NaCl, 1% Nonidet P-40, 0.5% sodium deoxycholate; antibodies with Protein G Plus/Protein A agarose beads, 4°C overnight; western blot. (Immunoblotting shows a protein as a band on a membrane.)

As for “Bcl-2-associated transcription factor 1 (from UniProt Q9NYF8 1-920)”, the binding result is reported as “binds”.
